Test results: the supplement of paper PMC10849652
The other results are listed elsewhere or left out.

Amino acid sequences for entries named in this document (tags omitted). A change or cut given only in a name is not applied to a line headed by its entry.
UniProt O14576, whole entry, looked up: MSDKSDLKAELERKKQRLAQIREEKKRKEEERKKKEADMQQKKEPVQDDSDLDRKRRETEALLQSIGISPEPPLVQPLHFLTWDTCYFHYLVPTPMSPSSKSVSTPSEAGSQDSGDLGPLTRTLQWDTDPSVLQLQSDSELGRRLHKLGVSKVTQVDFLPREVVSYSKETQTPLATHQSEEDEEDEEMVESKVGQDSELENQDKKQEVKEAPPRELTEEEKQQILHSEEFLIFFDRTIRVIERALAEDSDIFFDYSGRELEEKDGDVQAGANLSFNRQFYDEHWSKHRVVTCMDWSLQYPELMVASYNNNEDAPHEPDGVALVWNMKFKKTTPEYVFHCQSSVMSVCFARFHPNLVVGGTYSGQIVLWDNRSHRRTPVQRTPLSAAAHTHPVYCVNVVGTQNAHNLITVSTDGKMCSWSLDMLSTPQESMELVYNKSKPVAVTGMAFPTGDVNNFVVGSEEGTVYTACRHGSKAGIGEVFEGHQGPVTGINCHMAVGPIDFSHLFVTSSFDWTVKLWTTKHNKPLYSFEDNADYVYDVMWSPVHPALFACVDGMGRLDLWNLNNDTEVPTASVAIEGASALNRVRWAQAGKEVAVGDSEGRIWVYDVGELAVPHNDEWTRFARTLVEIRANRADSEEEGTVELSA
UniProt P51808: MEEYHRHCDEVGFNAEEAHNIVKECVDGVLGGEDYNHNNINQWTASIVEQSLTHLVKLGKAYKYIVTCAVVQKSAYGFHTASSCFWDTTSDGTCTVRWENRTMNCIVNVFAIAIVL
UniProt Q9NZJ0: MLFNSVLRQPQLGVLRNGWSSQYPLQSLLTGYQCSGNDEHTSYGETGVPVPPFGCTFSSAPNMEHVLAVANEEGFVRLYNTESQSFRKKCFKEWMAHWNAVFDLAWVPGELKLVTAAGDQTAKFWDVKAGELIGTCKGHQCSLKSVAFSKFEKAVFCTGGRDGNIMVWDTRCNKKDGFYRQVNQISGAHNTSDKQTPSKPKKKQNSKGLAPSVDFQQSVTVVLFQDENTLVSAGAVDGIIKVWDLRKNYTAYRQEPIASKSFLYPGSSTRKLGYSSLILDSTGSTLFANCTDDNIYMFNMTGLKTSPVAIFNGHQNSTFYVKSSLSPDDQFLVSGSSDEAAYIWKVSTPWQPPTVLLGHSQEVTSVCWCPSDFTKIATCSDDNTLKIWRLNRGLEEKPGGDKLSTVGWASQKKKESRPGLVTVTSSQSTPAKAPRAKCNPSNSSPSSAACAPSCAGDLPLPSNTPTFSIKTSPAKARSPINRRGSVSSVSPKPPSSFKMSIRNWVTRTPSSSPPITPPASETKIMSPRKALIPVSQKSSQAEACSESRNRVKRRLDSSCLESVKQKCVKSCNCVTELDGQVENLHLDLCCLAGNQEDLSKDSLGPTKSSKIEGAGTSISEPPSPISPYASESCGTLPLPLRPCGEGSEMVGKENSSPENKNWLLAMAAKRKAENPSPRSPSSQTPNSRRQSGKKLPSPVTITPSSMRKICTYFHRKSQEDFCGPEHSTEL
UniProt Q8NCM8: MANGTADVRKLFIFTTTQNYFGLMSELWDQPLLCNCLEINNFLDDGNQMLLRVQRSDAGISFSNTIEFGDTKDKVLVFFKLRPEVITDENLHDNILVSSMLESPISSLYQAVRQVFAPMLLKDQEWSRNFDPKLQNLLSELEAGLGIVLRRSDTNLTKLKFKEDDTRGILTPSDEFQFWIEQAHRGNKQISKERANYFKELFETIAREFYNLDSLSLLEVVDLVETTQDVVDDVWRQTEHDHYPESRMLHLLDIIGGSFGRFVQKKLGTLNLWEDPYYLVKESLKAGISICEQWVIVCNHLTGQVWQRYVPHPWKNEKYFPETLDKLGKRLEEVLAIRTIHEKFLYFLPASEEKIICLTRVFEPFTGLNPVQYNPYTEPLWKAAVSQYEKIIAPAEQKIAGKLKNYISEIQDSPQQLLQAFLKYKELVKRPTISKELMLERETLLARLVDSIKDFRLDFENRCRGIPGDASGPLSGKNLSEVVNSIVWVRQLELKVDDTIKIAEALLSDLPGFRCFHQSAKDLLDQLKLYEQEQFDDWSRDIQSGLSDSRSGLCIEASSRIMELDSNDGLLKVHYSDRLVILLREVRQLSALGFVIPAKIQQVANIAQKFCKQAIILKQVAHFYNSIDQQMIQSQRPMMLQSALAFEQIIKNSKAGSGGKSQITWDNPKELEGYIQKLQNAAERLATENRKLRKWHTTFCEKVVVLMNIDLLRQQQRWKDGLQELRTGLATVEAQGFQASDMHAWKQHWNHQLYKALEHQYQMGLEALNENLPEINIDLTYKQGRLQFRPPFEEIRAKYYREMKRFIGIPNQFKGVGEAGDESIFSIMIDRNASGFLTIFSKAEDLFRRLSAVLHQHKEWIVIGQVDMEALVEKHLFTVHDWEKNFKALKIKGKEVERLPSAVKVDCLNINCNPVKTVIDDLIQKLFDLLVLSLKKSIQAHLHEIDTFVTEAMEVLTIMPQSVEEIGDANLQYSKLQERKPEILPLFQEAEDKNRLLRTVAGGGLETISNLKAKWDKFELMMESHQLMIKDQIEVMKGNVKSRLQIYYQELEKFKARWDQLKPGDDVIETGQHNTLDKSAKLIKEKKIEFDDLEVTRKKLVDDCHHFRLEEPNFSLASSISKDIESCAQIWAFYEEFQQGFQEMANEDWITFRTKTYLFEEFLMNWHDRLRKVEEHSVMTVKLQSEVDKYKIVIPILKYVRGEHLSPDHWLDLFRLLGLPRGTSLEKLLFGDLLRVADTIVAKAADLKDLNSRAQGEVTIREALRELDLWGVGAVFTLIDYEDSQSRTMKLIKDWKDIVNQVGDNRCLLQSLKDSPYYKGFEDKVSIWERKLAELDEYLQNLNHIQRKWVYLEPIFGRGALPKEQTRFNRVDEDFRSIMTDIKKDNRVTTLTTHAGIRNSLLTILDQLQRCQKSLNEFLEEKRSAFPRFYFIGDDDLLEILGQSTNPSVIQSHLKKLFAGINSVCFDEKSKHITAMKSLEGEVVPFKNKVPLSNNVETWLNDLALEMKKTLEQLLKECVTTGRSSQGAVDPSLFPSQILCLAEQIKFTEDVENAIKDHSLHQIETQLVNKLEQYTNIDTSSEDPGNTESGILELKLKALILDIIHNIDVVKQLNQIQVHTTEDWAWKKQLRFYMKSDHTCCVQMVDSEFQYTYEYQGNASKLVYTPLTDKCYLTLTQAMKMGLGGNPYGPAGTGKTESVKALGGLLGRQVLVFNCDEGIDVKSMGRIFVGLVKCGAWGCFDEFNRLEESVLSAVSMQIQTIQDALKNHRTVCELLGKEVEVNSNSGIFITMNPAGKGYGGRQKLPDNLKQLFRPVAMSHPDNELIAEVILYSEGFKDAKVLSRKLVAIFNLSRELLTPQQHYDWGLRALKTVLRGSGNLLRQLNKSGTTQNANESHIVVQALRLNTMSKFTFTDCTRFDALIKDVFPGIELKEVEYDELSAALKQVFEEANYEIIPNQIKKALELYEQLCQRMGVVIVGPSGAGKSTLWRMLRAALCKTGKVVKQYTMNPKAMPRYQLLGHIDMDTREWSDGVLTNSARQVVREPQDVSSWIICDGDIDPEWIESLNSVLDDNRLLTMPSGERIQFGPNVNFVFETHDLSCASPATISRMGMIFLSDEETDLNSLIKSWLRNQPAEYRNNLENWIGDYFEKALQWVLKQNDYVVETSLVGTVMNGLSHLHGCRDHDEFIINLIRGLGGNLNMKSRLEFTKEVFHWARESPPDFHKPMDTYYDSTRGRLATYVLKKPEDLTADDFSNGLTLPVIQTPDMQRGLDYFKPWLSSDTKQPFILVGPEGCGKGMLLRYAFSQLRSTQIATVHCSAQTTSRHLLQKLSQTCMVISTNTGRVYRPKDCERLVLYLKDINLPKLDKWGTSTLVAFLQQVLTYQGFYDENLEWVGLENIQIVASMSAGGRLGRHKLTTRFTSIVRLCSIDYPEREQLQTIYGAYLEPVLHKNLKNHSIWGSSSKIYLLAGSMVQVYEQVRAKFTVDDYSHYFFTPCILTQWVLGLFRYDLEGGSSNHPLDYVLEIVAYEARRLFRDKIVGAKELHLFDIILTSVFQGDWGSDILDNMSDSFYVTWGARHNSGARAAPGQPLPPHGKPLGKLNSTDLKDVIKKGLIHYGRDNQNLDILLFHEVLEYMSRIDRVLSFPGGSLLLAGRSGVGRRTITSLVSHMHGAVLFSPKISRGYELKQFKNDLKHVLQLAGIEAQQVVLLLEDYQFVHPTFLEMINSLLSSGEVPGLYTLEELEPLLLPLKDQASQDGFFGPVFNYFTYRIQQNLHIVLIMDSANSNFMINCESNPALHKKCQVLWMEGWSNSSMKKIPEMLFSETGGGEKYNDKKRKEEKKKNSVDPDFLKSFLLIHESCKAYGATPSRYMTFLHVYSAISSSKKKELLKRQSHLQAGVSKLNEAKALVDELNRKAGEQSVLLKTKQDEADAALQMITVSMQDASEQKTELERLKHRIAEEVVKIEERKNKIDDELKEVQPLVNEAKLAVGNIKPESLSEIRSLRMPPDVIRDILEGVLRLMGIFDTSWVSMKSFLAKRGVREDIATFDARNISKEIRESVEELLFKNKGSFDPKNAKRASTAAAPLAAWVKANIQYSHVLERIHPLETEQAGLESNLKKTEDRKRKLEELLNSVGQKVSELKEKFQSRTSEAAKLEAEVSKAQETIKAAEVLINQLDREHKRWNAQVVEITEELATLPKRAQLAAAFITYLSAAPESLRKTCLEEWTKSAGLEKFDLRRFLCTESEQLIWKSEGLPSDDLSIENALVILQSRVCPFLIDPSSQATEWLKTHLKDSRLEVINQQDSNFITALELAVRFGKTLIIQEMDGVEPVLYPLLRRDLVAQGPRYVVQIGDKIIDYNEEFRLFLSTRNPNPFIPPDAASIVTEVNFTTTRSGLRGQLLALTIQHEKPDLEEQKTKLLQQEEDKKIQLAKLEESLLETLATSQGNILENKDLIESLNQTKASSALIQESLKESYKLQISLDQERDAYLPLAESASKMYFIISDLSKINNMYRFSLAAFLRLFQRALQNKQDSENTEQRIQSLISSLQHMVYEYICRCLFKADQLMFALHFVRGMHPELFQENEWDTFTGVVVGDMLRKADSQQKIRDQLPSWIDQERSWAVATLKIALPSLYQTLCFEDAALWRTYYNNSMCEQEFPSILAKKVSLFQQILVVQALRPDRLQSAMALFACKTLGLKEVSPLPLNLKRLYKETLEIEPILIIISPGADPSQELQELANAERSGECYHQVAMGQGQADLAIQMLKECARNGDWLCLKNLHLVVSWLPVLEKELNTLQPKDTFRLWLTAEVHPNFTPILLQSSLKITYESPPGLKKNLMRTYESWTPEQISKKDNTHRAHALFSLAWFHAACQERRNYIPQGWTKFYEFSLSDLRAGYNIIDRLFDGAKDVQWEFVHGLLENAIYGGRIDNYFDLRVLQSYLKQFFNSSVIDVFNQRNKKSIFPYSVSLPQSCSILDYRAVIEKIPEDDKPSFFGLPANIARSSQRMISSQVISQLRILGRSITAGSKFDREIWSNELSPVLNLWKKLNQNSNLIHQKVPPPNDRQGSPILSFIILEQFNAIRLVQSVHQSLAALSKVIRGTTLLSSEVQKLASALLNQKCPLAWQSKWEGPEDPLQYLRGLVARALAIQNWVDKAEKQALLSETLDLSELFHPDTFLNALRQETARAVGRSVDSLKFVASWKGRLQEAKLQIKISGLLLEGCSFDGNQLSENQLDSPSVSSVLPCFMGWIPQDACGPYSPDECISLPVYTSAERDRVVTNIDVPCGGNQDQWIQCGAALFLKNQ
UniProt Q9Y6B2: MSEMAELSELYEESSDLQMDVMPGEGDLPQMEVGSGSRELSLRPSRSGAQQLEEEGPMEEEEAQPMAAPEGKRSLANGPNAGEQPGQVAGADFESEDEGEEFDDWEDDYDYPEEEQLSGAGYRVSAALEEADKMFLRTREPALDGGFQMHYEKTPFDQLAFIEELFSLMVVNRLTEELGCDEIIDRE
UniProt Q8N7B9: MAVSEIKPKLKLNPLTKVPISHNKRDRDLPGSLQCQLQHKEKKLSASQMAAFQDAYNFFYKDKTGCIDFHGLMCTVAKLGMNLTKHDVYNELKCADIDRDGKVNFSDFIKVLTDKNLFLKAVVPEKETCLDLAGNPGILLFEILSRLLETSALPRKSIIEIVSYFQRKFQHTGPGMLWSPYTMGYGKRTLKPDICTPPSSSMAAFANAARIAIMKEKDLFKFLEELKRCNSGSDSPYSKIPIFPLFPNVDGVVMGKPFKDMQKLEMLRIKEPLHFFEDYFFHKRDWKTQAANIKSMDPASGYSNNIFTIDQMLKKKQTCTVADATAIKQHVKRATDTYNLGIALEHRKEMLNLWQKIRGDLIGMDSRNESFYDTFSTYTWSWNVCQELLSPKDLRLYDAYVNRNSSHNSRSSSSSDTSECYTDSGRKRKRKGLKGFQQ
UniProt Q9C005, whole entry, looked up: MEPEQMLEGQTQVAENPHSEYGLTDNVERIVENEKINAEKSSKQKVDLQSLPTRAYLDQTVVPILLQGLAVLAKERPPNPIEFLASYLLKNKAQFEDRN

Legend:
Experiment in all cases: log2 fold change, soluble protein after heating vs DMSO (PISA); higher = thermal stabilisation; K562 lysate, 10 uM; active = over 0.2 and 3.5 SD of the protein, either way, in both replicates (recomputed)
lapatinib = compound: CS(=O)(=O)CCNCc1ccc(-c2ccc3ncnc(Nc4ccc(OCc5cccc(F)c5)c(Cl)c4)c3c2)o1 [lapatinib]
Outline: (§1)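 Dounce homogenisation of K562 pellets in PBS pH 7.4 with 1 mM MgCl2 produced a crude extract, used at 1 mg/mL protein. Exposure to 10 μM compound lasted 30 min, and aliquots were then heated for 3 min across 48°C-58°C, pooled and brought to 0.5% NP-40 at 4°C. The supernatant after 21,000xg for 90 min was quantified by TMTpro 16plex LC-MS/MS with channel sums equalised. Duplicate values are given as log-two fold change in thermal stability relative to solvent controls.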

pictilisib = compound: CS(=O)(=O)N1CCN(Cc2cc3nc(-c4cccc5[nH]ncc45)nc(N4CCOCC4)c3s2)CC1 [pictilisib]
Outline: as §1

crizotinib = compound: C[C@@H](Oc1cc(-c2cnn(C3CCNCC3)c2)cnc1N)c1c(Cl)ccc(F)c1Cl [crizotinib]
Outline: as §1

[1] = compound: C[C@H](C1=CC=C(C=C1)C(=O)NC2=C3C=CNC3=NC=C2)N
Outline: as §1

gandotinib = compound: Cc1cc(Nc2cc(CN3CCOCC3)c3nc(C)c(Cc4ccc(Cl)cc4F)n3n2)n[nH]1 [gandotinib]
Outline: as §1

doramapimod = compound: Cc1ccc(-n2nc(C(C)(C)C)cc2NC(=O)Nc2ccc(OCCN3CCOCC3)c3ccccc23)cc1 [doramapimod]
Outline: as §1

bafetinib = compound: Cc1ccc(NC(=O)c2ccc(CN3CC[C@H](N(C)C)C3)c(C(F)(F)F)c2)cc1Nc1nccc(-c2cncnc2)n1 [bafetinib]
Outline: as §1

[2] = compound: Cc1cccc(CC(=O)N2CCc3c2ccc(-c2cn(C)c4ncnc(N)c24)c3F)n1
Outline: as §1

nilotinib = compound: Cc1cn(-c2cc(NC(=O)c3ccc(C)c(Nc4nccc(-c5cccnc5)n4)c3)cc(C(F)(F)F)c2)cn1 [nilotinib]
Outline: as §1

[3] = compound: Cc1nc(Nc2n[nH]c3c2CN(C(=O)N[C@H](CN(C)C)c2ccccc2)C3(C)C)c2sccc2n1
Outline: as §1

[4] = compound: Cc1ncc(-c2ccnc(Nc3ccc(S(C)(=O)=O)cc3)n2)n1C(C)C
Outline: as §1

quisinostat = compound: Cn1cc(CNCC2CCN(c3ncc(C(=O)NO)cn3)CC2)c2ccccc21 [quisinostat]
Outline: as §1

tipifarnib = compound: Cn1cncc1[C@@](N)(c1ccc(Cl)cc1)c1ccc2c(c1)c(-c1cccc(Cl)c1)cc(=O)n2C [tipifarnib]
Outline: as §1

[5] = compound: NC(=O)Nc1cc(-c2cccc(F)c2)sc1C(=O)N[C@H]1CCCNC1
Outline: as §1

[6] = compound: NC(=O)c1cnc(N[C@@H]2CCCC[C@@H]2N)nc1Nc1cccc(-n2nccn2)c1
Outline: as §1

[7] = compound: NC1(c2ccc(-c3nc4ccn5c(=O)[nH]nc5c4cc3-c3ccccc3)cc2)CCC1
Outline: as §1

duvelisib = compound: C[C@H](Nc1ncnc2nc[nH]c12)c1cc2cccc(Cl)c2c(=O)n1-c1ccccc1 [duvelisib]
Outline: as §1

tozasertib = compound: Cc1cc(Nc2cc(N3CCN(C)CC3)nc(Sc3ccc(NC(=O)C4CC4)cc3)n2)n[nH]1 [tozasertib]
Outline: as §1

dasatinib = compound: Cc1nc(Nc2ncc(C(=O)Nc3c(C)cccc3Cl)s2)cc(N2CCN(CCO)CC2)n1 [dasatinib]
Outline: as §1

[8] = compound: Cn1cc(-c2ccc3c(c2)CCN3C(=O)Cc2cccc(C(F)(F)F)c2)c2c(N)ncnc21
Outline: as §1

Measured: log2 fold change

DUSP19 (UniProt Q8WTR2)
inactive: lapatinib 0.086 | pictilisib -0.016 | crizotinib -0.077 | [1] -0.533 | gandotinib 0.168 | doramapimod 0.075 | bafetinib -0.076 | [2] 0.137 | nilotinib -0.065 | [3] 0.116 | [4] -0.35 | quisinostat -0.224 | tipifarnib -0.41 | [5] 0.022 | [6] -0.078 | [7] 0.004

DYNC1I1 (UniProt O14576)
inactive: lapatinib 0.014 | [1] -0.291 | duvelisib 0.038 | gandotinib -0.161 | tozasertib 0.02 | [2] 0.215 | dasatinib -0.008 | [8] -0.03 | [6] 0.071 | [7] -0.034

DZIP3 (UniProt Q86Y13)
inactive: [7] 0.015

Quoted at random: 2 records from the list
DYNC1I1 (UniProt O14576)
inactive: lapatinib 0.014 | [1] -0.291 | duvelisib 0.038 | gandotinib -0.161 | tozasertib 0.02 | [2] 0.215 | dasatinib -0.008 | [8] -0.03 | [6] 0.071 | [7] -0.034

DZIP3 (UniProt Q86Y13)
inactive: [7] 0.015

(listing goes on)

DUSP14 (UniProt O95147)
inactive: lapatinib -0.029 | [1] -0.03 | duvelisib 0.079 | gandotinib -0.091 | tozasertib -0.087 | [2] -0.116 | dasatinib -0.19 | [8] -0.192 | [6] 0.041 | [7] -0.045

DYNLT3 (UniProt P51808)
inactive: lapatinib -0.238 | crizotinib 0.068 | [1] -0.032 | gandotinib 0 | doramapimod -0.039 | [2] -0.012 | nilotinib 0.012 | [3] 0.05 | [4] -0.077 | quisinostat -0.024 | tipifarnib 0.057 | [5] 0.07 | [6] -0.011 | [7] -0.059

DTL (UniProt Q9NZJ0)
inactive: pictilisib -0.026 | crizotinib -0.035 | [1] 0.059 | duvelisib 0.174 | gandotinib -0.053 | doramapimod 0.064 | bafetinib -0.099 | [2] 0.006 | nilotinib 0.005 | [3] -0.022 | dasatinib 0.044 | [4] -0.052 | [8] 0.066 | tipifarnib 0.036 | [5] 0.025 | [7] 0.048
active: quisinostat -0.227

DUT (UniProt H0YMP1)
inactive: lapatinib -0.008 | pictilisib -0.065 | bafetinib -0.285 | [6] -0.207

DYNC2H1 isoform 2 (UniProt Q8NCM8)
inactive: lapatinib -0.058 | pictilisib -0.078 | [1] -0.12 | duvelisib 0.035 | gandotinib 0.004 | tozasertib -0.041 | bafetinib -0.302 | [2] -0.036 | nilotinib 0.023 | [3] -0.005 | dasatinib -0.125 | [4] -0.014 | [8] 0.17 | tipifarnib -0.049 | [6] -0.034 | [7] -0.079

EID1 (UniProt Q9Y6B2)
active: duvelisib 0.604
inactive: [1] -0.02 | gandotinib 0.108 | tozasertib -0.043 | [2] 0.069 | nilotinib 0.067 | [3] 0.085 | dasatinib -0.306 | [4] 0.05 | [8] 0.32 | tipifarnib 0.021 | [7] 0.133

DTWD2 (UniProt Q8NBA8)
inactive: lapatinib -0.002 | pictilisib -0.042 | crizotinib 0.244 | [1] -0.026 | gandotinib 0.019 | doramapimod -0.08 | bafetinib -0.025 | [2] 0.118 | nilotinib -0.016 | [3] -0.038 | [4] 0.008 | quisinostat -0.048 | tipifarnib -0.025 | [5] -0.017 | [6] 0.043 | [7] -0.019

DSCAML1 (UniProt Q8TD84)
inactive: lapatinib -0.085 | pictilisib -0.059 | crizotinib -0.049 | [1] -0.093 | gandotinib 0.096 | doramapimod 0.035 | bafetinib -0.123 | [2] 0.013 | nilotinib -0.132 | [3] -0.05 | [4] 0.01 | quisinostat -0.111 | tipifarnib 0.116 | [5] 0.067 | [6] 0.064

EFCAB3 (UniProt Q8N7B9)
inactive: lapatinib -0.097 | crizotinib 0.094 | doramapimod 0 | quisinostat 0.213 | [5] 0.033 | [6] -0.093 | [7] 0.163

DPY30 (UniProt Q9C005)
inactive: lapatinib -0.012 | crizotinib -0.117 | [1] 0.27 | duvelisib 0.052 | gandotinib -0.055 | tozasertib 0.087 | doramapimod -0.005 | [2] -0.097 | nilotinib 0.063 | [3] -0.021 | dasatinib -0.005 | [4] 0.298 | [8] 0.002 | quisinostat -0.156 | tipifarnib -0.134 | [5] -0.051 | [6] -0.032 | [7] -0.037
